Results published in the supplement of paper PMC9015667.
Some of the results follow. Repeats are few or missing, and single values can be far off.

The compounds below were run on M249P (parental melanoma line) (assay: reduction in cell viability relative to untreated/vehicle; higher = more growth inhibition). Settings: 200 nM; 72 h.

SMILES	reduction in cell viability [%]
O=c1[nH]c(=O)n([C@H]2C[C@H](O)[C@@H](CO)O2)cc1C(F)(F)F [Trifluridine]	< 0
C[C@@H](Oc1cc(-n2cnc3ccc(CN4CCN(C)CC4)cc32)sc1C(N)=O)c1ccccc1C(F)(F)F	< 0
Cc1ccc(S(=O)(=O)N[C@@H](Cc2ccccc2)C(=O)CCl)cc1	< 0
Cn1cc(C2=C(c3ccc(Cl)cc3Cl)C(=O)NC2=O)c2ccccc21	< 0
CCc1c2c(nc3ccc(O)cc13)-c1cc3c(c(=O)n1C2)COC(=O)[C@]3(O)CC	48
CCC1(c2ccccc2)C(=O)NCNC1=O [Primidone]	< 0
O=C1CN2Cc3c(ccc(Cl)c3Cl)N=C2N1 [anagrelide]	12.7
O=NN(CCCl)C(=O)NC1CCCCC1 [Lomustine]	< 0
COC(=O)Nc1nc2cc(C(=O)c3ccccc3)ccc2[nH]1 [Mebendazole]	25
O=C(c1ccc(F)c(F)c1Nc1ccc(I)cc1F)N1CC(O)([C@@H]2CCCCN2)C1	82
NC(=O)c1ccc(I)c([N+](=O)[O-])c1 [Iniparib]	< 0
CCn1c(=O)c2c(nc(/C=C/c3ccc(OC)c(OC)c3)n2C)n(CC)c1=O [Istradefylline]	< 0
Cc1ccc2c(=O)c3cccc(CC(=O)O)c3oc2c1C [Vadimezan]	< 0
Cc1cc(C(C)Nc2ccccc2)c2nc(N3CCOCC3)cc(=O)n2c1 (stereo unspecified)	< 0
O=NN(CCCl)C(=O)NCCCl [Carmustine]	< 0
NC(=O)[C@@H](CCC(F)(F)F)N(Cc1ccc(-c2ncon2)cc1F)S(=O)(=O)c1ccc(Cl)cc1 [Avagacestat]	< 0

A draw from above in order of SMILES length, high to low.
SMILES	reduction in cell viability [%]
CCn1c(=O)c2c(nc(/C=C/c3ccc(OC)c(OC)c3)n2C)n(CC)c1=O [Istradefylline]	< 0
NC(=O)c1ccc(I)c([N+](=O)[O-])c1 [Iniparib]	< 0
O=C1CN2Cc3c(ccc(Cl)c3Cl)N=C2N1 [anagrelide]	12.7
